# In the supplement of paper PMC12067093, “Discovery and optimisation of a covalent ligand for TRIM25 and its application to targeted protein ubiquitination” (Chemical Science, 2025):
# Sequences of proteins named here, by UniProt entry; tags and fusion partners are left off. A change or cut given only in a name is not applied to a line headed by its entry.
# UniProt Q9BQA1, whole entry, looked up: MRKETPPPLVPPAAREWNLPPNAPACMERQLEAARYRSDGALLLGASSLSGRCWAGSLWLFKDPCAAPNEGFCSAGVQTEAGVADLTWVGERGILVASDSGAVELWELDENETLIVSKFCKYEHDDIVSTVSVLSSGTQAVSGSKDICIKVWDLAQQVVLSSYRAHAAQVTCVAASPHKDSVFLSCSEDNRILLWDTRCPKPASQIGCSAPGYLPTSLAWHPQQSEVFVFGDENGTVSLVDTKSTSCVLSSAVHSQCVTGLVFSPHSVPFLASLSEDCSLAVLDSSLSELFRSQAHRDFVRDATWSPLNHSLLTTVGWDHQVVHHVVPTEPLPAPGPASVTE
# UniProt P23381: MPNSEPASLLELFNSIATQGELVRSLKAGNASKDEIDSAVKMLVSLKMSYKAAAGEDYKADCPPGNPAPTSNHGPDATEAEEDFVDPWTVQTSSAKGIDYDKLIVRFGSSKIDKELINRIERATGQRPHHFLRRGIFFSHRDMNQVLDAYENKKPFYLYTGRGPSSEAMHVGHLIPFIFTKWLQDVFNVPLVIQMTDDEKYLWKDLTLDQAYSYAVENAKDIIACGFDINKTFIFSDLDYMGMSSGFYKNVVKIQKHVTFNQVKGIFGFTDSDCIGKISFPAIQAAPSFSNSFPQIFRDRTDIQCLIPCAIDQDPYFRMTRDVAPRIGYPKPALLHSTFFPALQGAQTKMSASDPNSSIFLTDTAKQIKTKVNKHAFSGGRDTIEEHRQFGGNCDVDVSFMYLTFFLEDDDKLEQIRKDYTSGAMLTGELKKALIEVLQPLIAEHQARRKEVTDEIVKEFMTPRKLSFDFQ
# UniProt Q9HCS7: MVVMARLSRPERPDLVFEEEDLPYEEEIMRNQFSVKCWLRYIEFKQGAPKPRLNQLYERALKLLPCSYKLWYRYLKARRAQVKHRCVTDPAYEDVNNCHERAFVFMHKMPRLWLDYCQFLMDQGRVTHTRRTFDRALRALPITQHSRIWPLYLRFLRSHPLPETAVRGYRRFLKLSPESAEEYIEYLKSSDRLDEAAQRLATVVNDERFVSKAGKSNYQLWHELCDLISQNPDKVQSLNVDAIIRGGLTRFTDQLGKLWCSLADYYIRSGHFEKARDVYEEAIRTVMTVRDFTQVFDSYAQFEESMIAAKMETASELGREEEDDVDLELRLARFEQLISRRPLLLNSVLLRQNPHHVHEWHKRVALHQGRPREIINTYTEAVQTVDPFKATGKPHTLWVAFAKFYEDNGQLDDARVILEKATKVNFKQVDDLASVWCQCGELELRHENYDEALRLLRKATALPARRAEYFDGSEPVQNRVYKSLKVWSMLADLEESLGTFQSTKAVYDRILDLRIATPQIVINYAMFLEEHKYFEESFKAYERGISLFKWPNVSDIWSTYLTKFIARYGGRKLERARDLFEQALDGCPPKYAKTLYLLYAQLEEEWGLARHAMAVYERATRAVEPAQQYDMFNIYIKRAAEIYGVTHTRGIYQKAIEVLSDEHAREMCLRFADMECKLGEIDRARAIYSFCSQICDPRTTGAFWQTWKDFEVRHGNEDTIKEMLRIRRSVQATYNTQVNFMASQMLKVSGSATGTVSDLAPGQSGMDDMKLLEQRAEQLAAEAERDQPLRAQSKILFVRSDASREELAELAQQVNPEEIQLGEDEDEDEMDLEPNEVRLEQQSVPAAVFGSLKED
# UniProt Q9UNX4: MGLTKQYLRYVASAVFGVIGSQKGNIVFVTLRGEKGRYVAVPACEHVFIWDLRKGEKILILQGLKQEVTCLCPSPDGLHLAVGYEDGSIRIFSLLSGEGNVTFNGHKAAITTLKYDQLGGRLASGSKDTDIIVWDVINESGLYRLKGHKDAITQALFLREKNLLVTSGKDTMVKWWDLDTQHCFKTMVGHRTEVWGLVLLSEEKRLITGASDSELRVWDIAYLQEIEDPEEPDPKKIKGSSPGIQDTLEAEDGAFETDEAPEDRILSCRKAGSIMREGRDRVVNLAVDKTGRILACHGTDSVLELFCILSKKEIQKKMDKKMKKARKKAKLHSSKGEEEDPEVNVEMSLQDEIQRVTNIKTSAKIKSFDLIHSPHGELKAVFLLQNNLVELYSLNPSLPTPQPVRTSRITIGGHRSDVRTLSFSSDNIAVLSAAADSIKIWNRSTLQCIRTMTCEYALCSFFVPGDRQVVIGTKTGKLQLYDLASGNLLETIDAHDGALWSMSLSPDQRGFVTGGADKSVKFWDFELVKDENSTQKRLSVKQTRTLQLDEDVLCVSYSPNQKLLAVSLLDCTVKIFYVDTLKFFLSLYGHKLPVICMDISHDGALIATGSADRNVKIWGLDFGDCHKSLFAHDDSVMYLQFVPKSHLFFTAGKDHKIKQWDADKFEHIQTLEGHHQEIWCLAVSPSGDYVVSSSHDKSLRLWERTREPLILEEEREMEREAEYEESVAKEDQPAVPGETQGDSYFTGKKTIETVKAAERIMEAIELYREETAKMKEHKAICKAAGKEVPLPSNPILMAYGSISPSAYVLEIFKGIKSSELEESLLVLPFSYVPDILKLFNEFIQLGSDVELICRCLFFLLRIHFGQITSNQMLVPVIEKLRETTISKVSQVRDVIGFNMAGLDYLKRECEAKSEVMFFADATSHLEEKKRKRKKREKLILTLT
# UniProt Q9NW82: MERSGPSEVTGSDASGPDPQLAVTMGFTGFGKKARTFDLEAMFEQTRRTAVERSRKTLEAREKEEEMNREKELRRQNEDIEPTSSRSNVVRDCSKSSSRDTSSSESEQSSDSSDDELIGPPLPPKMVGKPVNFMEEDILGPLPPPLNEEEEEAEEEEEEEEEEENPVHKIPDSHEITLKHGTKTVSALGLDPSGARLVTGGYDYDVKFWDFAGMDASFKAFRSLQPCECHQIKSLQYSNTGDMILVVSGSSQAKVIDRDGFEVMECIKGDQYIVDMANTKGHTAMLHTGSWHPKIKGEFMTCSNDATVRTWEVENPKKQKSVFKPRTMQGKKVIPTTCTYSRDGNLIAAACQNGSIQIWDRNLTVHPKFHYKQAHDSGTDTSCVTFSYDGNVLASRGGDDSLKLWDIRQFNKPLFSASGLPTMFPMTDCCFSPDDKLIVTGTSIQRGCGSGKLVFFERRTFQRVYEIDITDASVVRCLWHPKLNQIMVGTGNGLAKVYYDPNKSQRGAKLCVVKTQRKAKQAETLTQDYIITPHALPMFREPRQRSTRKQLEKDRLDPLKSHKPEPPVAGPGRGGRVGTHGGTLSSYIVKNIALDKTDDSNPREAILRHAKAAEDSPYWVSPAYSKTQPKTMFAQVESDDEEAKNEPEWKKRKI
# UniProt O75717: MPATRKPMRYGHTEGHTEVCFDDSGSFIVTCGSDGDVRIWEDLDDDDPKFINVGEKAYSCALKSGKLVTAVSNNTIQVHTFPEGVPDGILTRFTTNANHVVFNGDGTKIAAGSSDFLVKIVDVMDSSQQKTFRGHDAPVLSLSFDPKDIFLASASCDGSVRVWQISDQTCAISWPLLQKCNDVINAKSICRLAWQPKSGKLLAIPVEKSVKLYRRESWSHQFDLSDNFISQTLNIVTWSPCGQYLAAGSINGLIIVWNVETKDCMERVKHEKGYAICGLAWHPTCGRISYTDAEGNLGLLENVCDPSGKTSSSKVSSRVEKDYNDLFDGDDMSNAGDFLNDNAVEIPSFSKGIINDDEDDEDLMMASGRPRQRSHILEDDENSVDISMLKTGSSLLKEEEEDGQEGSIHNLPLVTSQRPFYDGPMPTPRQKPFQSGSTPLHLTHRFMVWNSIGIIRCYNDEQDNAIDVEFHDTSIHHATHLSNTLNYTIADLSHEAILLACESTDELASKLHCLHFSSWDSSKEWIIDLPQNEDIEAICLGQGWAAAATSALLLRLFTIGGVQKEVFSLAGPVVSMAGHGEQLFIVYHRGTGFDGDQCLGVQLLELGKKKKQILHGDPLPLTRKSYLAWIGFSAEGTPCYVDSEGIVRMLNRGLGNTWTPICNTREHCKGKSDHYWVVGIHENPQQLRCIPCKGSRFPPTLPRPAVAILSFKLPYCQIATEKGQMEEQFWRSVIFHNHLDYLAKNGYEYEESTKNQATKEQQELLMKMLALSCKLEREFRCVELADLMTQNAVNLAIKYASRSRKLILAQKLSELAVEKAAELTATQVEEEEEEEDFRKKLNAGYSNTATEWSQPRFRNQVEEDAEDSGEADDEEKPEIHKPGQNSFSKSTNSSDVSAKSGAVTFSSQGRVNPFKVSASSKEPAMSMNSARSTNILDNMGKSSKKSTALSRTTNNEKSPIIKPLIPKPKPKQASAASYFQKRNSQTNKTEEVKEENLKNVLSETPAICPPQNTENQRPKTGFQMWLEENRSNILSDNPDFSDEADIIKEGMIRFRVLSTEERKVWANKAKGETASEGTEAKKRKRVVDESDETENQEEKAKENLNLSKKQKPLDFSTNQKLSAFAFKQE
# UniProt Q8NEZ3: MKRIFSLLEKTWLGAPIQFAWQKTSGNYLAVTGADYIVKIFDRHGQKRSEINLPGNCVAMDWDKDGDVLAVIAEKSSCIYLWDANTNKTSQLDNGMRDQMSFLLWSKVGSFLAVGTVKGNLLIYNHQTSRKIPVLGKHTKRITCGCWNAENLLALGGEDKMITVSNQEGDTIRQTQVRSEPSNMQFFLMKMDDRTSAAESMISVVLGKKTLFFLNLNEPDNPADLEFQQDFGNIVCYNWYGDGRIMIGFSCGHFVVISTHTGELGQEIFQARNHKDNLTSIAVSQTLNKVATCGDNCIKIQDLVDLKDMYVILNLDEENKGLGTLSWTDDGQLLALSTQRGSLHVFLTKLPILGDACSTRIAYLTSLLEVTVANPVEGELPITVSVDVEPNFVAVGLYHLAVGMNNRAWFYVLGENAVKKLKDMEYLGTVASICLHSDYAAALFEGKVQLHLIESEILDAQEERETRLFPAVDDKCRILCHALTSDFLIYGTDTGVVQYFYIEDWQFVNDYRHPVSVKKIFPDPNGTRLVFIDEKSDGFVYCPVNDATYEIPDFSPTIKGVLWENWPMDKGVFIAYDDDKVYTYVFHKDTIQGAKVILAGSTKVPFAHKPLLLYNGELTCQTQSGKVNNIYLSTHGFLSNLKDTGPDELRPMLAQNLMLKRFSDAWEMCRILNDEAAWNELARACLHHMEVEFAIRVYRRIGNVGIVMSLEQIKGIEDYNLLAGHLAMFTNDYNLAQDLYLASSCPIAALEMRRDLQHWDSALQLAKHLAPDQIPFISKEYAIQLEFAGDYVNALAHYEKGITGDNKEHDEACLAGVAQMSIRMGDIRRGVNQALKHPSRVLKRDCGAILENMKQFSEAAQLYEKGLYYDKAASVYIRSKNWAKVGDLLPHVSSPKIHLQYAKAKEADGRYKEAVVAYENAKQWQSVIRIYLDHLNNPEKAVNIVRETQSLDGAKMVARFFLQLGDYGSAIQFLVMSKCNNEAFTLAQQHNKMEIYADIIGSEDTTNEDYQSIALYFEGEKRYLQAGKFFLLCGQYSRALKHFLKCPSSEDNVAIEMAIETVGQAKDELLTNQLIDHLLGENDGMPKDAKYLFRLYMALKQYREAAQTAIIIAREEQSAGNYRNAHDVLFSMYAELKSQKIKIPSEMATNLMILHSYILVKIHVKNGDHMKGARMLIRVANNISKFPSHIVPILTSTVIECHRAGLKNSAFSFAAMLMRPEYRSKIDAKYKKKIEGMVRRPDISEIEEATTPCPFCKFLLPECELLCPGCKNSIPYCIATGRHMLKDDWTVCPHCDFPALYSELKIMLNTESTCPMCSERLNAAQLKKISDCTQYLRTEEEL
# The list shows a part of the results.
# Compound: CC1Cc2ccccc2N1C(=O)C1CCCN(C1)C(=O)CCl (mixture of isomers) [TRIM25 ligand 11 (diastereomer mixture)]
# Assay: probe-labelled cysteine peptide fold change vs DMSO (competition) (log2 fold change); higher = less target engagement (more negative = stronger competition)
# Details: THP-1, incubation time: 4 h
# 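Further: competitive chemoproteomic profiling in live THP-1 cells with an iodoacetamide desthiobiotin (IA-DTB) probe, comparing probe-labelled peptide intensities in compound-treated cells against DMSO-treated controls.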
Target,probe-labelled cysteine peptide fold change (10 µM),probe-labelled cysteine peptide fold change (50 µM)
WDR77_Q9BQA1_186_DSVFLSCSEDNR (UniProt Q9BQA1),0.204,0.0668
WARS_P23381_274_GIFGFTDSDCIGK (UniProt P23381),0.00994,-0.0153
XAB2_Q9HCS7_587_DLFEQALDGCPPK (UniProt Q9HCS7),0.132,0.0552
WDR3_Q9UNX4_625_IWGLDFGDCHK (UniProt Q9UNX4),0.0377,0.05
WDR70_Q9NW82_383_QAHDSGTDTSCVTFSYDGNVLASR (UniProt Q9NW82),0.312,-0.591
WDFY4_Q6ZS81_2449_HCLSNISDPFIFNLCSK (UniProt Q6ZS81),-0.0629,-0.243
WDR44_Q5JSH3_642_ECLCCFQHIDFVTAIAFHPR (UniProt Q5JSH3),0.143,0.281
WDHD1_O75717_598_GTGFDGDQCLGVQLLELGK (UniProt O75717),0.063,0.127
WDR19_Q8NEZ3_813_EHDEACLAGVAQMSIR (UniProt Q8NEZ3),0.423,0.102

# Two entries from above, bar-delimited:
Target | probe-labelled cysteine peptide fold change (10 µM) | probe-labelled cysteine peptide fold change (50 µM)
WDR3_Q9UNX4_625_IWGLDFGDCHK (UniProt Q9UNX4) | 0.0377 | 0.05
WDHD1_O75717_598_GTGFDGDQCLGVQLLELGK (UniProt O75717) | 0.063 | 0.127
